Results deposited as PubChem BioAssay AID1259308 (NCATS, 2017).

Test: 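Genes whose loss raises luciferase production in HEK293 cells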 (primary screen)
Cell system: human HEK293 embryonic kidney cells stably expressing firefly luciferase (HEK-CMV-Luc2-Hygro)
Reagent: single siRNA against human genes, 0.8 pmol siRNA per well
Timing: 72 h
Detection: 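Reporter luminescence and viable-cell signal on separate replicate plates, given as percent of non-targeting control and median/MAD z-scores, plus per-cell luciferase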
Scale: total luciferase, z-score: higher = more reporter protein produced
Hit rule: 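Active when the median/MAD z-score for overall luciferase is greater than 3; a gene was taken forward for validation with new siRNAs if at least two of its three siRNAs passed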
Meaning of the calls: active = raised luciferase; inactive = no rise
Shown is a random part of about 59,000 deposited reagents. About 1,510 of them (2.6%) were called active. 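Calls use total luciferase alone and ignore viability, so some active siRNAs may act by altering cell number.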 A number with no mark means an inactive call. Reagents against one gene are numbered here. Further read-outs or replicates are left out here. Reagent sequences are not shown.

What is on record for HR #1?
total luciferase, z-score: 2.51

With HR #2, what was measured?
total luciferase, z-score: -1.28

How did the screen score HR #3?
total luciferase, z-score: -0.971

What did the screen give for PKD1 #1?
total luciferase, z-score: 1.48

With PKD1 #2, what was measured?
total luciferase, z-score: -0.885

For PKD1 #3, what does the deposit list?
total luciferase, z-score: 0.437

For TAGLN #1, what was measured?
total luciferase, z-score: 0.587

With TAGLN #2, what does the deposit list?
total luciferase, z-score: 0.829

How did the screen score TAGLN #3?
total luciferase, z-score: 3.88 (active)

Records listed above marked active:
TAGLN #3 → total luciferase, z-score: 3.88 (active)

Further records follow:
What did the screen give for USP41P #1?
total luciferase, z-score: -0.23

What did the screen give for USP41P #2?
total luciferase, z-score: 0.166

With USP41P #3, what was measured?
total luciferase, z-score: 1.09

With CTPS2 #1, what does the deposit list?
total luciferase, z-score: 0.0389

How did the screen score CTPS2 #2?
total luciferase, z-score: 0.219

With CTPS2 #3, what was measured?
total luciferase, z-score: -0.893

What did the screen give for OR51D1 #1?
total luciferase, z-score: 1.74

With OR51D1 #2, what does the deposit list?
total luciferase, z-score: 0.178

With OR51D1 #3, what does the deposit list?
total luciferase, z-score: 0.609

For NIPSNAP1 #1, what does the deposit list?
total luciferase, z-score: -2

For NIPSNAP1 #2, what was measured?
total luciferase, z-score: 0.933

For NIPSNAP1 #3, how do the results read?
total luciferase, z-score: -0.579
